PubChem BioAssay AID1259308 | NCATS – 2017

Purpose: 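Genes whose loss raises luciferase production in HEK293 cells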 (primary screen)
Cells: human HEK293 embryonic kidney cells stably expressing firefly luciferase (HEK-CMV-Luc2-Hygro)
Reagent: single siRNA against human genes, 0.8 pmol siRNA per well
Timing: 72 h
Measurement: 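Luciferase light (ONE-Glo) measured on one replicate plate set and viability (CellTiter-Glo) on the other, scaled to a negative control siRNA, with robust z-scores and luciferase per cell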
Scale: total luciferase, z-score and total luciferase, % of control: higher = more reporter protein produced; luciferase per cell, z-score: higher = more reporter output per viable cell; viable cells, % of control: higher = more viable cells
Rule for the call: 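Active when the median/MAD z-score for overall luciferase is greater than 3; a gene was taken forward for validation with new siRNAs if at least two of its three siRNAs passed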
Meaning of the calls: active = raised luciferase; inactive = no rise
This is one part, drawn at random, of about 59,000 reagents. Of all reagents, about 1,510 (2.6%) got an active call. 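Calls use total luciferase alone and ignore viability, so some active siRNAs may act by altering cell number.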

The first 4 entries as a preview:
gene | PubChem SID | total luciferase, z-score | total luciferase, % of control | luciferase per cell, z-score | viable cells, % of control | outcome
ZNF91 | SID160719127 | 0.399 | 89.8 | 0.733 | 82.8 | inactive
ZNF91 | SID160719128 | -1.83 | 45.4 | -2.35 | 94.4 | inactive
ZNF91 | SID160719129 | -0.944 | 63.1 | -1 | 91.8 | inactive
FOXE3 | SID160730816 | -1.11 | 59.8 | -1.48 | 98.8 | inactive

Main list, from the first entry:
gene | PubChem SID | total luciferase, z-score | total luciferase, % of control | luciferase per cell, z-score | viable cells, % of control | outcome
ZNF91 | SID160719127 | 0.399 | 89.8 | 0.733 | 82.8 | inactive
ZNF91 | SID160719128 | -1.83 | 45.4 | -2.35 | 94.4 | inactive
ZNF91 | SID160719129 | -0.944 | 63.1 | -1 | 91.8 | inactive
FOXE3 | SID160730816 | -1.11 | 59.8 | -1.48 | 98.8 | inactive
FOXE3 | SID160766105 | -0.966 | 62.7 | -1.41 | 101 | inactive
FOXE3 | SID160766115 | 0.435 | 90.5 | 0.0418 | 100 | inactive
TMEM220 | SID160765825 | -2.17 | 38.7 | -1.69 | 67.5 | inactive
TMEM220 | SID160765826 | -0.187 | 78.2 | -0.0367 | 88.2 | inactive
TMEM220 | SID160765827 | -0.543 | 71.1 | -0.85 | 99.4 | inactive
ENTPD8 | SID160765517 | -0.732 | 67.3 | 0.646 | 63.5 | inactive
ENTPD8 | SID160765518 | -0.327 | 75.4 | -0.332 | 91.9 | inactive
ENTPD8 | SID160765519 | 2.2 | 126 | 2.19 | 78.8 | inactive
OR10K2 | SID160733266 | -0.192 | 78.1 | -0.574 | 101 | inactive
OR10K2 | SID160766632 | -1.55 | 51 | -0.813 | 70.6 | inactive
OR10K2 | SID160766633 | -0.0736 | 80.4 | 0.636 | 76 | inactive
SFTPA1 | SID160734180 | -0.462 | 72.7 | -0.463 | 91.8 | inactive
SFTPA1 | SID160771019 | 2.98 | 141 | 2.77 | 76.1 | inactive
SFTPA1 | SID160771020 | 1.15 | 105 | 1.07 | 88.2 | inactive
IQCF3 | SID160725337 | -0.135 | 79.2 | -1.09 | 118 | inactive
IQCF3 | SID160767133 | -0.105 | 79.8 | 0.0209 | 88.7 | inactive
IQCF3 | SID160767134 | 0.0221 | 82.3 | -0.195 | 96.8 | inactive
CEACAM5 | SID160741550 | -0.546 | 71 | -0.381 | 87.7 | inactive
CEACAM5 | SID160741561 | -0.676 | 68.4 | 0.616 | 65 | inactive
CEACAM5 | SID160741572 | 0.45 | 90.8 | 0.00115 | 101 | inactive
PNISR | SID160732848 | -0.19 | 78.1 | -0.108 | 89.8 | inactive
PNISR | SID160737332 | -1.17 | 58.7 | -1.19 | 89.7 | inactive
PNISR | SID160737333 | 0.0819 | 83.5 | -0.165 | 97.5 | inactive
SFN | SID160772637 | -0.0549 | 80.8 | -0.285 | 97.3 | inactive
SFN | SID160772644 | -0.587 | 70.2 | 0.427 | 70.1 | inactive
SFN | SID160772654 | 1.45 | 111 | 1.34 | 86.8 | inactive
LINC02609 | SID160758806 | 0.0548 | 83 | 0.859 | 74 | inactive
LINC02609 | SID160758807 | -0.457 | 72.8 | -0.404 | 90.5 | inactive
LINC02609 | SID160758808 | -0.285 | 76.2 | -0.434 | 95.5 | inactive
FRS3 | SID160729293 | 0.911 | 100 | 0.443 | 99.5 | inactive
FRS3 | SID160729294 | -0.171 | 78.5 | 0.741 | 72.2 | inactive
FRS3 | SID160729295 | 0.855 | 98.9 | 1.05 | 83.9 | inactive
HTR1E | SID160775445 | 0.396 | 89.8 | -0.326 | 109 | inactive
HTR1E | SID160775446 | -0.27 | 76.5 | -0.775 | 105 | inactive
HTR1E | SID160775447 | -0.234 | 77.2 | -0.483 | 98 | inactive
